pIC50: −log10 of the molar value. Structures were worked out from names or drawings and are uncertain.
Target: LRRK2 recombinant protein (Homo sapiens, UniProt Q5S007)
Experiment: Radiometric protein kinase assay (33PanQinase Activity Assay), in vitro peptide-based kinase assay
Details: read-out: IC50 for LRRK2; protein kinase LRRK2 7.3 nM, ATP 0.3 μM, substrate GSK3(14-27), 30° C. for 60 minutes
Description: The inhibition of LRRK2 kinase was assessed using LRRK2 recombinant protein in an in vitro peptide-based kinase assay.
A radiometric protein kinase assay (^33PanQinase® Activity Assay) is used for measuring the kinase activity. All assays are performed in 96-well FlashPlates™ from Perkin Elmer in a 50 μl reaction volume. The reaction cocktail is […] in 4 steps in the following order: • 10 μl of non-radioactive ATP solution (in H2O) • 25 μl of assay buffer/[γ-^33P]-ATP mixture • 5 μl of test sample in 10% DMSO • 10 μl of enzyme/substrate mixture
The assay for LRRK2 contains 70 mM HEPES-NaOH pH 7.5, 3 mM MgCl2, 3 mM MnCl2, 3 μM Na-orthovanadate, 1.2 mM DTT, 50 μg/ml PEG20000, ATP (0.3 μM), [γ-^33P]-ATP (approx. […] per well), protein kinase LRRK2 (7.3 nM) and substrate (GSK3(14-27), 1.0 μg/50 μl). The kinase is obtained from Invitrogen Corporation.
The reaction cocktails were incubated at 30° C. for 60 minutes. The reaction was stopped with 50 μl of 2% (v/v) H3PO4, plates were aspirated and washed two times with 200 μl 0.9% (w/v) NaCl. Incorporation of ^33Pi (counting of “cpm”) was determined with a microplate scintillation counter.
The compounds are dissolved to 10 mM in DMSO. Where needed, solutions are sonicated in a bath sonicator.

Amino acid sequences for entries named in this document (tags omitted).
UniProt Q5S007, whole entry: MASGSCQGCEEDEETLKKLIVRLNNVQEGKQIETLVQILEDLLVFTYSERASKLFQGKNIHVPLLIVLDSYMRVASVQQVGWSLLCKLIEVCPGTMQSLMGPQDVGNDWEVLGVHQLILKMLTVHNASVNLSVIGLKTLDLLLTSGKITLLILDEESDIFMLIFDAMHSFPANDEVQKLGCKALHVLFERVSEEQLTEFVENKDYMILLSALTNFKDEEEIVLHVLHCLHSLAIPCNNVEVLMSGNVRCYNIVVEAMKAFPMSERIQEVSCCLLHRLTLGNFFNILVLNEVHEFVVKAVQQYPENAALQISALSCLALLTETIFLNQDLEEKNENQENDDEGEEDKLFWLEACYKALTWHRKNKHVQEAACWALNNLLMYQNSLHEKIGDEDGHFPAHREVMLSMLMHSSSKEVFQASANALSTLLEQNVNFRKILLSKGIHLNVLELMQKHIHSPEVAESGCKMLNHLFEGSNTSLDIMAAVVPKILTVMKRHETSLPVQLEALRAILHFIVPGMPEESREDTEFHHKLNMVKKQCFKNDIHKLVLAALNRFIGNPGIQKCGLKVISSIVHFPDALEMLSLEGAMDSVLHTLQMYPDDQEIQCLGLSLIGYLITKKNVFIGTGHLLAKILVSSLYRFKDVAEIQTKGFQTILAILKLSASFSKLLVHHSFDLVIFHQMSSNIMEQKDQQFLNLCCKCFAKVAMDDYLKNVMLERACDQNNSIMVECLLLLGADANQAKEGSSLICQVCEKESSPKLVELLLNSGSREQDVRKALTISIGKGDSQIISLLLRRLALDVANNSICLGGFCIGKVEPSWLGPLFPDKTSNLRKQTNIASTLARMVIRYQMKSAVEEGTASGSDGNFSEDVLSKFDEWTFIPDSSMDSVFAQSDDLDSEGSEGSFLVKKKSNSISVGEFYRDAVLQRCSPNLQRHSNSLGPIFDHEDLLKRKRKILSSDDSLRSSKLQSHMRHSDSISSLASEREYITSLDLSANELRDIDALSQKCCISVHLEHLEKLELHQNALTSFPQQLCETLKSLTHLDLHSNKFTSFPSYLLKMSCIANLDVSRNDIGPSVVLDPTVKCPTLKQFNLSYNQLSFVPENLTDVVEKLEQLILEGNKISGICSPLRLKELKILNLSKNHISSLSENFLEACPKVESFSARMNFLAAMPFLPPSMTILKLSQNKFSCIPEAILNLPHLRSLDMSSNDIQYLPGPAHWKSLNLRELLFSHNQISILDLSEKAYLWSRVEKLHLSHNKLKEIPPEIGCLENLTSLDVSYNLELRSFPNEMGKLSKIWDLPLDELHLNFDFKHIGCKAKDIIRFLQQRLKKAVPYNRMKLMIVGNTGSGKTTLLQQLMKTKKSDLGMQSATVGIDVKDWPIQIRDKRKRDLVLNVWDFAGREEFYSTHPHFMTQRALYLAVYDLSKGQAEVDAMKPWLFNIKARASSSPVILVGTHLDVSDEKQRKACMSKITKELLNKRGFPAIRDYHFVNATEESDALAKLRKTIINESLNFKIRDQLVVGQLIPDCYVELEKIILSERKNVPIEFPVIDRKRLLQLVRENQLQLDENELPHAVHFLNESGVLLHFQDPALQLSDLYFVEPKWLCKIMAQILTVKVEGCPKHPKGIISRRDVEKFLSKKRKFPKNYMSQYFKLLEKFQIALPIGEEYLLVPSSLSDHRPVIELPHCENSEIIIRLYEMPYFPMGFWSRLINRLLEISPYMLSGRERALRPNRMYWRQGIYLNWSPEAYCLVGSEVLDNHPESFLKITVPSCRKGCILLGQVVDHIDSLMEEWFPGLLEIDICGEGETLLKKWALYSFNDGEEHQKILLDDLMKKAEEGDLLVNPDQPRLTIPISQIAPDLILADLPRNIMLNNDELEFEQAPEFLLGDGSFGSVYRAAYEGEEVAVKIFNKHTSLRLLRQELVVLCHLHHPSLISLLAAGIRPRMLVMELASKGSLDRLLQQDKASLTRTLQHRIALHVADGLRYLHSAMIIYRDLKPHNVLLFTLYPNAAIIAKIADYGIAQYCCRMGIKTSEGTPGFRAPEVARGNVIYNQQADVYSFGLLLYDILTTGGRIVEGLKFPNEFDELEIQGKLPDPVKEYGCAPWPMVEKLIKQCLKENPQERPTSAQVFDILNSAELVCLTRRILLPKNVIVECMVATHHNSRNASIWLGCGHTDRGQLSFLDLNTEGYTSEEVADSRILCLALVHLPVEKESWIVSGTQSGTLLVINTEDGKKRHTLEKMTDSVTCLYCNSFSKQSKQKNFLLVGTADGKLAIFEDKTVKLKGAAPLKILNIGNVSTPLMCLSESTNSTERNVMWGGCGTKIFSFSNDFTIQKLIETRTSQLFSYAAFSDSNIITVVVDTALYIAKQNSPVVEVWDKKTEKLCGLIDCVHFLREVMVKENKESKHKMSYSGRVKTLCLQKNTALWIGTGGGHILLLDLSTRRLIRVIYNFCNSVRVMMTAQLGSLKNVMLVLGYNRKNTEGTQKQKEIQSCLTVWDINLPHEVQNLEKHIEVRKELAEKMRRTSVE

Row | SMILES | pIC50
1 | Fc1ccc2cc1-c1cnn3ccc(nc13)NCCNCCCO2 | > 7.00
2 | CN1CCNCCNc2ccc(F)c(c2)-c2cnn3ccc1nc23 | > 7.00

Source: patent US20160031905A1, “Macrocyclic LRRK2 Kinase Inhibitors” (IPSEN PHARMA S.A.S., priority 2013, published 2016)
